Earlier results on one compound are cited in PMC7823661 (Viruses, 2020).

This data set deals with P. falciparum W2-chloroquine-resistant clone. The note with it: in vitro, read-out: IC50 antiplasmodial; cited from earlier work.

A word on the IC50: it is the concentration needed to halve the response being measured. Consider `CCN(CC)CCCC(C)Nc1ccnc2cc(Cl)ccc12` (stereo not shown) [chloroquine], for which the IC50 is 460 nM.
